{"source": "patent US8445444B2", "about": "“Compositions and methods for diagnosing, treating, and preventing prostate conditions” (Phigenix, Inc., priority 2007, dated 2013)", "origin": "cited, not measured here", "test_system": "human prostate cancer cells", "details": "xenograft models of human prostate cancer cells; cited from earlier work", "note": "At least one structure is not confirmed: it was looked up by name or label, or the drawing left a doubt.", "data": [{"smiles": "CCOc1nc2cccc(C(=O)O)c2n1Cc1ccc(-c2ccccc2-c2nnn[nH]2)cc1", "note": "[Candesartan]", "values": [{"measurement": "tumor growth and vascularization", "value": "reduce tumor growth and vascularization"}]}]}
